Among the data in article PMC8974194 are binding values, retold here.

Chains of the proteins cited; added tags and fusions are not shown.
UniProt P35222: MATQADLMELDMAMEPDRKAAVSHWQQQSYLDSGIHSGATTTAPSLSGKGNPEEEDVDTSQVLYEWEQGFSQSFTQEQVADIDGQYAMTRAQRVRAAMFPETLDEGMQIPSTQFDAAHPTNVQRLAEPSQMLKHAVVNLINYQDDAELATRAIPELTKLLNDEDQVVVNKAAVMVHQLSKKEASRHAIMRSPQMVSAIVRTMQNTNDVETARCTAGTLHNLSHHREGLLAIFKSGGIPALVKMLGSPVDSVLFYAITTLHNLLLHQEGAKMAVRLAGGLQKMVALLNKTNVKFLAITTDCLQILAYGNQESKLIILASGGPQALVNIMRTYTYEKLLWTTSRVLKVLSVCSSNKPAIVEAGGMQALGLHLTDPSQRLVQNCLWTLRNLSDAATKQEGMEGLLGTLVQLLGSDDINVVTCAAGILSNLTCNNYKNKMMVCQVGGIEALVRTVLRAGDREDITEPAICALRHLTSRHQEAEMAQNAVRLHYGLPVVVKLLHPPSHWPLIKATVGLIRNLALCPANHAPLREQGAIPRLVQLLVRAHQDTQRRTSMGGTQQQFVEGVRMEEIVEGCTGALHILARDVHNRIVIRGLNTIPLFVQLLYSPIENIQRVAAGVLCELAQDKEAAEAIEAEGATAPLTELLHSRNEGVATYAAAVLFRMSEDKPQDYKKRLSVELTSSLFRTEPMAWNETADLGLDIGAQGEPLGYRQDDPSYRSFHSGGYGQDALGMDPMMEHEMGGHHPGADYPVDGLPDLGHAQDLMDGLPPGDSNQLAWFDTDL
UniProt Q15717: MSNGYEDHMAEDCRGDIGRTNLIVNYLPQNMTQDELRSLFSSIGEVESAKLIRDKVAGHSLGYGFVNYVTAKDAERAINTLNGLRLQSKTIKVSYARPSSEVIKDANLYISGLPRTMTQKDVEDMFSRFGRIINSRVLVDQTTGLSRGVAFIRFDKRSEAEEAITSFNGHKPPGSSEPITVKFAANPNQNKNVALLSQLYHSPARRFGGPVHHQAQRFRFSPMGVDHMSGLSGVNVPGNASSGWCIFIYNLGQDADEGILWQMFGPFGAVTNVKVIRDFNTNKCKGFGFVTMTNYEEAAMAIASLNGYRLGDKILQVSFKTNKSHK

No constants are given. Whether binding was seen depends on the method and setting. Binding seen in cells or lysates may run through a third protein. Some binding calls cover weakened binding; strength is not graded here.

The target in this assay is β-catenin (CTNNB1) (human (endogenous in colorectal cancer cells, SW480 or HCT116)) (UniProt P35222). Description: co-IP; 5 x 10^6 cells lysed in NP40 buffer with 1x cocktail; 500 ug protein with 5 ug RIgG or antibody overnight at 4°C, 50 ul agarose beads 3 h at 4°C; Western blot. On the technique in general: In western blotting, separated proteins are transferred to a membrane and probed.

As to “HuR (ELAVL1) (from UniProt Q15717 1-326)”, the binding entry was “binds”.
